From ChEMBL document CHEMBL3988442, “University of Dundee, Small-Polar-MMV Screening Library” (2021).

A: 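Whole-cell growth test on Mycobacterium tuberculosis, read after 4 days in a medium based on cholesterol and the lipid DPPC; the read-out is not stated. Concentration: 50 µM. Direction is inferred from retests: higher values go with more growth inhibition. Size under these conditions: about 69,000 compounds, about 370 of them at 50% or above in at least one test.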
B: 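Whole-cell growth test on Mycobacterium tuberculosis, read after 3 days in glucose-containing 7H9 medium; the read-out is not stated. Tested at 50 µM. Direction is inferred from retests: higher values go with more growth inhibition. Of about 69,000 compounds tested this way, about 760 (1.1%) reached 50% or more in at least one test.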

Values are the deposited “Percent Effect”, in %.
The controls that fix the scale are not given in the record; negative values are as filed.
Compounds were drawn at random from those tested, without regard to their results.
Two or more numbers in one place are separate tests of the same structure; such repeats can differ widely.

{"compound": "CC1(C(=O)N2CCOCC2)CN(Cc2ccccc2F)CCO1", "stereo": "centres unmarked", "A": -6.343, "B": -15.59}
{"compound": "CC(C)C(C)N(Cc1cnc2ccccc2n1)Cc1ccco1", "stereo": "centres unmarked", "A": -28.75, "B": -42.98}
{"compound": "CCc1c(C)nc2n(c1=O)CC(C(=O)Nc1ccccc1C)CS2", "stereo": "centres unmarked", "A": -23.05, "B": -1.253}
{"compound": "COc1ccc(-n2cccn2)c(CN2CCC3(CCCNC3)C2)c1", "stereo": "centres unmarked", "A": 7.924, "B": "0.4734 & -9.098"}
{"compound": "CC(=O)NCCNC(=O)CN1CCCC(Cn2cncn2)C1", "stereo": "centres unmarked", "A": -0.9911, "B": -3.713}
{"compound": "Cc1ccc(C(=O)NC2CCN(Cc3nc(C(C)C)no3)CC2)s1", "A": -21.17, "B": -15.62}
{"compound": "CC(C)(C)c1cn(C2CCN(C(=O)c3cncnc3)CC2)nn1", "A": -21.5, "B": -29.77}
{"compound": "CCO[C@H]1CO[C@@]2(CCCN(Cc3scnc3C)C2)C1.O=C(O)C(F)(F)F", "A": -10.09, "B": -22.35}
{"compound": "c1ncc2c(n1)CN(Cc1nc(-c3ccsc3)no1)CC2", "A": 4.26, "B": -25.02}
{"compound": "CN(C)C(=O)CC1CC2(CCN(CC3CC3)CC2)Oc2ccccc21.O=C(O)C(F)(F)F", "stereo": "centres unmarked", "A": -20.77, "B": 17.93}
{"compound": "COc1ncc(C2(O)CCN(Cc3ccccc3O)CC2)c(OC)n1", "A": -3.954, "B": 11.24}
{"compound": "CS(=O)(=O)N1CCC(Oc2ccc(C(=O)N3CCSCC3)cc2Cl)CC1", "A": 3.287, "B": "25.42 & -3.881"}
{"compound": "COC(=O)c1cc(C)nc(N2CCN(Cc3cc(C(C)C)no3)CC2)n1", "A": -30.19, "B": "-2.917 & 106.3"}
{"compound": "COCCN1CCCC1(C)c1nc(C)cc(N)n1", "stereo": "centres unmarked", "A": 4.742, "B": -6.616}
{"compound": "Fc1cccc(CCN(c2ccc3nnnn3n2)C2CC2)c1", "A": 13.09, "B": -0.1452}
{"compound": "O=C(c1cccnc1N1CCOCC1)N1CCCC(n2cccn2)C1", "stereo": "centres unmarked", "A": -5.832, "B": -9.671}
{"compound": "Cc1cc(C2CCCN2C(=O)NCc2cccnc2N(C)C)on1", "stereo": "centres unmarked", "A": 21.15, "B": 35.95}
{"compound": "Cn1nc2c(cc1=O)CN(Cc1nnc(-c3ccc(F)cc3)o1)CC2", "A": -6.708, "B": -18.34}
{"compound": "COc1ccc(CN2CCC(c3cc(O)nc(C)n3)C2)c(F)c1", "stereo": "centres unmarked", "A": 2.76, "B": 11.82}
{"compound": "Cc1ccc(N2CCc3ncnc(C4CC4)c3CC2)nn1", "A": -25.04, "B": -53.38}
{"compound": "COC(=O)c1ccc(C(=O)N2CCC(c3nnc(C)s3)CC2)cc1", "A": -8.169, "B": "-25.24 & -0.2139"}
{"compound": "CNC(=O)C(C)(C)NC(=O)c1cc(COc2ccccc2OC)[nH]n1", "A": 3.103, "B": 29.5}

2 of the entries, repeated:

Compound,A,B
CNC(=O)C(C)(C)NC(=O)c1cc(COc2ccccc2OC)[nH]n1,3.103%,29.5%
CCc1c(C)nc2n(c1=O)CC(C(=O)Nc1ccccc1C)CS2 (centres unmarked),-23.05%,-1.253%